PubChem BioAssay AID504774, Drosophila RNAi Screening Center | 2011

Aim: 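Genes required for cells to withstand methyl methanesulphonate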 (primary screen)
Cells: Drosophila Kc167 cells
Reagents: long dsRNA against Drosophila genes, about 0.25 µg dsRNA per well
Timing: about 6 days: 3 days knock-down, then 3 days with or without MMS
Conditions: methyl methanesulphonate 0.004% (w/v) for 3 days after knock-down
Detection: 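ATP-dependent luminescence as a measure of live cells in MMS-exposed wells, quantile normalised within each plate, with replicate values also given as a mean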
Direction: mean viability with MMS: higher = more surviving cells after MMS
In all, the deposit lists about 23,000 reagents; shown is a random part of those with a known target gene and a result. 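Values are quantile-normalised luminescence on an arbitrary scale; higher means more cells surviving MMS.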 A plus sign joins genes that one reagent is predicted to hit. Not all columns of the deposit are shown.

CG3734 [DRSC15509]
- mean viability with MMS: 3.51e6

CG15710 [DRSC06581]
- mean viability with MMS: 3.44e6

Lamtor2 + CG30120 [DRSC05726]
- mean viability with MMS: 3.47e6

Lamtor2 + CG30120 [DRSC06922]
- mean viability with MMS: 3.54e6

ND-51 [DRSC03145]
- mean viability with MMS: 3.45e6

ksh [DRSC19554]
- mean viability with MMS: 3.55e6

CG14440 [DRSC17933]
- mean viability with MMS: 2.94e6

CG14440 [DRSC23008]
- mean viability with MMS: 3.50e6

CG14440 [DRSC23009]
- mean viability with MMS: 3.56e6

CG14561 [DRSC11722]
- mean viability with MMS: 3.55e6

Sry-alpha [DRSC16867]
- mean viability with MMS: 3.51e6

CG31664 [DRSC22084]
- mean viability with MMS: 3.57e6

Ugt303A1 [DRSC15641]
- mean viability with MMS: 3.49e6

CG8768 [DRSC07259]
- mean viability with MMS: 3.44e6

Mip [DRSC10639]
- mean viability with MMS: 3.46e6

CG7544 [DRSC07023]
- mean viability with MMS: 2.02e6

CG11857 [DRSC14411]
- mean viability with MMS: 3.59e6

CG3552 [DRSC10370]
- mean viability with MMS: 3.60e6

beta-PheRS [DRSC15859]
- mean viability with MMS: 3.39e6

6 successive entries already listed, quoted:
Lamtor2 + CG30120 [DRSC06922]
- mean viability with MMS: 3.54e6

ND-51 [DRSC03145]
- mean viability with MMS: 3.45e6

ksh [DRSC19554]
- mean viability with MMS: 3.55e6

CG14440 [DRSC17933]
- mean viability with MMS: 2.94e6

CG14440 [DRSC23008]
- mean viability with MMS: 3.50e6

CG14440 [DRSC23009]
- mean viability with MMS: 3.56e6

Continued.
tomboy40 [DRSC04918]
- mean viability with MMS: 3.56e6

CG31419 [DRSC15771]
- mean viability with MMS: 3.47e6

nAChRalpha4 [DRSC11925]
- mean viability with MMS: 3.48e6

Coq9 [DRSC22913]
- mean viability with MMS: 3.56e6

UQCR-C2 [DRSC10405]
- mean viability with MMS: 3.46e6

E(spl)mgamma-HLH [DRSC16699]
- mean viability with MMS: 3.41e6

EMC6 [DRSC14386]
- mean viability with MMS: 3.60e6

CG18542 + CG32939 [DRSC15342]
- mean viability with MMS: 3.72e6

pdm3 [DRSC06076]
- mean viability with MMS: 3.67e6

pdm3 [DRSC06490]
- mean viability with MMS: 3.58e6

pdm3 [DRSC22326]
- mean viability with MMS: 2.94e6

pdm3 [DRSC23181]
- mean viability with MMS: 3.60e6

by [DRSC16482]
- mean viability with MMS: 3.53e6

CG8671 [DRSC03102]
- mean viability with MMS: 3.50e6

CG8671 [DRSC03103]
- mean viability with MMS: 3.51e6

Jhbp7 [DRSC14408]
- mean viability with MMS: 3.41e6
